Source: patent publication US20040259179A1, “Sterol markers as diagnostic tools in the prevention of atherosclerotic diseases and as tools to aid in the selection of agents to be used for the prevention and treatment of atherosclerotic disease” (priority 2003, published 2004)
At least one structure is not confirmed: it was looked up by name or label, or the drawing left a doubt.

Tested on: patients with primary hypercholesterolemia
Experiment: Non-cholesterol sterol analysis of plasma by GC-MS, EZE/SIMVA trial (Example 2)
Format: in vivo, human
Details: pooled doses, 12 weeks
Experimental: A post-hoc analysis of a randomized, double-blind, placebo-controlled trial of primary hypercholesterolemia patients (LDL-C 145-250 mg/dl and TG≦350 mg/dl) was conducted to examine the effects of 12 weeks of daily treatment with ezetimibe (EZE) 10 mg, simvastatin (SIMVA) pooled doses 10-80 mg, or EZE 10 mg/SIMVA 10-80 mg (EZE/SIMVA) coadministration (pooled) on concentrations of phytosterols (sitosterol and campesterol) and cholesterol precursors (lathosterol and desmosterol). Baseline and endpoint plasma samples of 578 patients were analyzed by GC-mass spectrometry
Following a 4 week placebo lead-in/diet phase, patients with primary hypercholesterolemia (LDL-C 145-250 mg/dL and TG≦350 mg/dL) were randomized on one of the following daily treatments for 12 weeks:
Of 668 patients randomized to treatment in the original study, 578 (86%) had evaluable −70° C. plasma samples for both baseline and endpoint visits. Concentrations of non-cholesterol sterols were measured by gas chromatography-mass spectrometry (GC-MS).
The primary efficacy parameter was mean percent change in plasma sitosterol concentration from baseline to endpoint comparing EZE/SIMVA (pooled across doses) versus SIMVA monotherapy (pooled across doses). Other efficacy parameters included mean percent changes in campesterol, lathosterol and desmosterol concentrations as well as mean changes in the ratios of each of these sterols to cholesterol.
Two-tailed testing was conducted at a=0.05. To compare treatment effects on sterol concentrations and ratios, an ANCOVA model including the fixed effects of treatment, dose, and dose-by-treatment interaction was used with the baseline value as the covariate.

## CCC(C)(C)C(=O)O[C@H]1C[C@@H](C)C=C2C=C[C@H](C)[C@H](CC[C@@H]3C[C@@H](O)CC(=O)O3)[C@H]21 [SIMVA, simvastatin]
FIG. 8
  effect on concentrations of cholesterol precursors lathosterol and desmosterol (baseline to endpoint), in words: large, significant reductions
Table in FIG. 6
  effect on ratios of sitosterol:cholesterol and campesterol:cholesterol, in words: significantly increased
Table in FIG. 8
  effect on ratios of lathosterol:cholesterol and desmosterol:cholesterol, in words: significantly reduced
